From the supplement of paper PMC10849652
Some of the results follow.

By UniProt entry, the sequences of proteins in these tests, tags left out. Where a name states a change or a piece, a line headed by the entry shows the natural chain unless it says otherwise.
UniProt Q7L5D6: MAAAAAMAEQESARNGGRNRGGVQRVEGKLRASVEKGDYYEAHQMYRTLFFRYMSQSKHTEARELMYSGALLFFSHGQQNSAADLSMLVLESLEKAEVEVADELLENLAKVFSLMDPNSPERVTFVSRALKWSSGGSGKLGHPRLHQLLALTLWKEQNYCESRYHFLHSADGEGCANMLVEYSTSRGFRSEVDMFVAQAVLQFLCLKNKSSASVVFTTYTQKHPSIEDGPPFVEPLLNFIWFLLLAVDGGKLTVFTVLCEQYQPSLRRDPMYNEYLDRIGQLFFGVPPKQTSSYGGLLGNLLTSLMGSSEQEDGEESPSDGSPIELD
UniProt Q14C86: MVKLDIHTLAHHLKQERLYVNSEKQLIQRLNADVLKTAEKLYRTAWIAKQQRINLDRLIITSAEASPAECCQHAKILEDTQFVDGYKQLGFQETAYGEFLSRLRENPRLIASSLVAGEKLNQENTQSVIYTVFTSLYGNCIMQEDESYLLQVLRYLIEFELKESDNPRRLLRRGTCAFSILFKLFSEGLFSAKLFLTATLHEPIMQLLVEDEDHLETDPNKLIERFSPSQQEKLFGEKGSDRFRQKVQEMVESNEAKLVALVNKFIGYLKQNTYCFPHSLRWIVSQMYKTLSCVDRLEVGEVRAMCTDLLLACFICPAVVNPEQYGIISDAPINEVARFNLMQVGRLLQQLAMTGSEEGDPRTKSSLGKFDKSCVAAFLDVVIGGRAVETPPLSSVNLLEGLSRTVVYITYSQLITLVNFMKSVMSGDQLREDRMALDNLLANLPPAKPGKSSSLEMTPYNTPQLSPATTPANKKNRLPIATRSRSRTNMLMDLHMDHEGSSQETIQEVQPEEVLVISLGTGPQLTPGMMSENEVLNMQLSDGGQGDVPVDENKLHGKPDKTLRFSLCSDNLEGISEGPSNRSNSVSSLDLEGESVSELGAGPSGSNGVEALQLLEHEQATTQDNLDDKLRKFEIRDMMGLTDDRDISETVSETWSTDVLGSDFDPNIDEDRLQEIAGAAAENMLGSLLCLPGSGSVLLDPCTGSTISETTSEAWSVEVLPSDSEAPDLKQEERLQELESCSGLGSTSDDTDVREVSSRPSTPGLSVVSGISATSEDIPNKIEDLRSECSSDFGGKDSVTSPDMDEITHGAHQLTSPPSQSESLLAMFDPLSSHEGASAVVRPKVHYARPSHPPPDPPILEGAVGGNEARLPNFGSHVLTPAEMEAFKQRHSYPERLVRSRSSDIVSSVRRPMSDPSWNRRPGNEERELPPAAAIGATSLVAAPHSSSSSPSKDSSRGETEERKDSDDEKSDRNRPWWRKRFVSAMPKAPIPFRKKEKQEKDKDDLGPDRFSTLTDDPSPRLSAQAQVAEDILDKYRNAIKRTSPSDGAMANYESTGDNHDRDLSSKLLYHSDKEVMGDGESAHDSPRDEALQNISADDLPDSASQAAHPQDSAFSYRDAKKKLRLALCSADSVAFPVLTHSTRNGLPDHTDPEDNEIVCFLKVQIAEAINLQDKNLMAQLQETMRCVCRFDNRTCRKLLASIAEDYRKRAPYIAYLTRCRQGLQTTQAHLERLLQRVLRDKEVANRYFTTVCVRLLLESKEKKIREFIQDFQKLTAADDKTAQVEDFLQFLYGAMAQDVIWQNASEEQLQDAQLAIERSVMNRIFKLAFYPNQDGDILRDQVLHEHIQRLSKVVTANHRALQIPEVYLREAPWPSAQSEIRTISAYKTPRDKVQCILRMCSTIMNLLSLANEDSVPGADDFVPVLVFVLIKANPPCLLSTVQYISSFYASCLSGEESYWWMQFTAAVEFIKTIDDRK
UniProt O75600: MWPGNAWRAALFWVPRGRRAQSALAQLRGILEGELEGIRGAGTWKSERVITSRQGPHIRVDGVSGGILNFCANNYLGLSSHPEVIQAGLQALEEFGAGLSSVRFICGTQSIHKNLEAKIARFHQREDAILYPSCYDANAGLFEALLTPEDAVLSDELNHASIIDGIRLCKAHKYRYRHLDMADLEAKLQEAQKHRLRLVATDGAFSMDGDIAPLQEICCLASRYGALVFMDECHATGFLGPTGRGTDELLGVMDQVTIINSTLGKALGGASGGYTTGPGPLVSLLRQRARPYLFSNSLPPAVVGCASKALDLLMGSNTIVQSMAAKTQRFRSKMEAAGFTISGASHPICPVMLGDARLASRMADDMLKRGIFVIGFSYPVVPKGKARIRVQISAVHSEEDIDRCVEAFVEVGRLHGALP
UniProt P23434: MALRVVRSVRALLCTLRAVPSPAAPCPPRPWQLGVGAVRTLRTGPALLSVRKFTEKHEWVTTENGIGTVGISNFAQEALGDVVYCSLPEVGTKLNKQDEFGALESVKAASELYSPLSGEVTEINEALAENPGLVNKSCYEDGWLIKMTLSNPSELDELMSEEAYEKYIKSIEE
UniProt Q06210: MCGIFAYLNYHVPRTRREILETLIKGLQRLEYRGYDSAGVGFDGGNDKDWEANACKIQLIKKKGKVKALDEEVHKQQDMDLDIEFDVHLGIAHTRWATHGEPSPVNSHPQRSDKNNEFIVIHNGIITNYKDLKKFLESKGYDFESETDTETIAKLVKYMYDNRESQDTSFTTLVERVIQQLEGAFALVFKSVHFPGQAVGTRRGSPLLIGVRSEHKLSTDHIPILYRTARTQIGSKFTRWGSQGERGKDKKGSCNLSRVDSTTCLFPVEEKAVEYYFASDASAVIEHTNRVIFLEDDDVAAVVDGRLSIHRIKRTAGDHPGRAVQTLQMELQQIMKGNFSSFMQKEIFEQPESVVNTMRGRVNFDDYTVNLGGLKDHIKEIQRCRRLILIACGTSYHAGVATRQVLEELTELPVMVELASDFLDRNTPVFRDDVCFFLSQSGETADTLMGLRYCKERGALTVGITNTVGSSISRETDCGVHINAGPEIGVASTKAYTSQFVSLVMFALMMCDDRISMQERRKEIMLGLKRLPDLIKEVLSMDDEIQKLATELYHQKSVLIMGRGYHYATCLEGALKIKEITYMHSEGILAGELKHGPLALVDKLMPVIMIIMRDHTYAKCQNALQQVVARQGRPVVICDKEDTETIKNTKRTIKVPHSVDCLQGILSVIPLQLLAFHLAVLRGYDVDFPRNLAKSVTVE
UniProt O95166, whole entry, looked up: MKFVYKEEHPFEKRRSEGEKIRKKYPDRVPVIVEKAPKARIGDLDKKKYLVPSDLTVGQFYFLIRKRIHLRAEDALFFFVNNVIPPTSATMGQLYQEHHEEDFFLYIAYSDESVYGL
UniProt Q9NXN4: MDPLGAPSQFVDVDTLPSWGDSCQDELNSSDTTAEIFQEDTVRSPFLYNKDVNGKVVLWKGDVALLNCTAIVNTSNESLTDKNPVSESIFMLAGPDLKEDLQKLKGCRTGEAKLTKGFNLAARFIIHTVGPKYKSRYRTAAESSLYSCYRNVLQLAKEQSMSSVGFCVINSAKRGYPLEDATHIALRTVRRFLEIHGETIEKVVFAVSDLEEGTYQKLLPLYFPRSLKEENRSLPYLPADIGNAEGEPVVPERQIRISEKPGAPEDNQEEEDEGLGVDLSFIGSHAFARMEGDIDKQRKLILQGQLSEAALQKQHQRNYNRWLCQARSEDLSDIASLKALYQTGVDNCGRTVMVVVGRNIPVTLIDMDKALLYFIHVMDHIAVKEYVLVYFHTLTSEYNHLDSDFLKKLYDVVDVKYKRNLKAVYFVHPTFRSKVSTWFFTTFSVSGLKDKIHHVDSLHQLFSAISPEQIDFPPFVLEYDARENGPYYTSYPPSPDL
UniProt Q13069: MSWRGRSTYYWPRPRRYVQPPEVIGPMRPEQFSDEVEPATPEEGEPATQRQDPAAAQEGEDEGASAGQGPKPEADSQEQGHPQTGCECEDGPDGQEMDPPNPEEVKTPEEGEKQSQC
UniProt P02792: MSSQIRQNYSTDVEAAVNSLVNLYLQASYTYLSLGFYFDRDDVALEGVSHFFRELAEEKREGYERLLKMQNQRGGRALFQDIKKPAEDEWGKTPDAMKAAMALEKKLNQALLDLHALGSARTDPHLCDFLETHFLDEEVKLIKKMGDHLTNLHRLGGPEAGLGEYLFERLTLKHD
UniProt O15117, whole entry, looked up: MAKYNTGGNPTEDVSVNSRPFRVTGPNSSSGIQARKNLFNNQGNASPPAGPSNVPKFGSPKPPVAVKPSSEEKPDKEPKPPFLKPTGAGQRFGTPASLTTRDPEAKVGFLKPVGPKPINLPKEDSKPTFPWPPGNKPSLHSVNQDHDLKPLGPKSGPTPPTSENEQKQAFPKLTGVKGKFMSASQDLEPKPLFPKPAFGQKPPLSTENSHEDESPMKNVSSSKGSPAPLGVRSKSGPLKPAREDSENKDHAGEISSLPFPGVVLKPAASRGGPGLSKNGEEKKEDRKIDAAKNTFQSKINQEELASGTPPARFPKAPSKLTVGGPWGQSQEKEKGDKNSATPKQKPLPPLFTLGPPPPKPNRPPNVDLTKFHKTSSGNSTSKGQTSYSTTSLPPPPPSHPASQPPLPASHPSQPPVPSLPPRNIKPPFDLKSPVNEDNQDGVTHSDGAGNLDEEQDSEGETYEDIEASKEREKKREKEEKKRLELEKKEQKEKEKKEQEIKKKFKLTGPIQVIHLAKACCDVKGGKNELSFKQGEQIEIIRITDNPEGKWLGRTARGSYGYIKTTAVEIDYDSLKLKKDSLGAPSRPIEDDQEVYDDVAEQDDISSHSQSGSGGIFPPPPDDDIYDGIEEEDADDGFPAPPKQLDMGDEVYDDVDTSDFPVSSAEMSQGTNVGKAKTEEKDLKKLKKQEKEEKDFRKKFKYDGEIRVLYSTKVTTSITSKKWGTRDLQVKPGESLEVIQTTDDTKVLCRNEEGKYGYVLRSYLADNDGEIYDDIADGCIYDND
UniProt P04406: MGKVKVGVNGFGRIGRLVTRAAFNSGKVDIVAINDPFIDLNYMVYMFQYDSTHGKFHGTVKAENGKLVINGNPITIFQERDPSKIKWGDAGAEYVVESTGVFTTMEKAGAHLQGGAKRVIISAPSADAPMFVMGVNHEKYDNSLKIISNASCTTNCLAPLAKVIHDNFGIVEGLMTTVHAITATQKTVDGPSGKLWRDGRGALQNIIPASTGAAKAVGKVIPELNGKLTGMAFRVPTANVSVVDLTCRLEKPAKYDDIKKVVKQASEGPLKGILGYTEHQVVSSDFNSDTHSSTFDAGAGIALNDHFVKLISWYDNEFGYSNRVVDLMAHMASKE
UniProt Q9UJY4: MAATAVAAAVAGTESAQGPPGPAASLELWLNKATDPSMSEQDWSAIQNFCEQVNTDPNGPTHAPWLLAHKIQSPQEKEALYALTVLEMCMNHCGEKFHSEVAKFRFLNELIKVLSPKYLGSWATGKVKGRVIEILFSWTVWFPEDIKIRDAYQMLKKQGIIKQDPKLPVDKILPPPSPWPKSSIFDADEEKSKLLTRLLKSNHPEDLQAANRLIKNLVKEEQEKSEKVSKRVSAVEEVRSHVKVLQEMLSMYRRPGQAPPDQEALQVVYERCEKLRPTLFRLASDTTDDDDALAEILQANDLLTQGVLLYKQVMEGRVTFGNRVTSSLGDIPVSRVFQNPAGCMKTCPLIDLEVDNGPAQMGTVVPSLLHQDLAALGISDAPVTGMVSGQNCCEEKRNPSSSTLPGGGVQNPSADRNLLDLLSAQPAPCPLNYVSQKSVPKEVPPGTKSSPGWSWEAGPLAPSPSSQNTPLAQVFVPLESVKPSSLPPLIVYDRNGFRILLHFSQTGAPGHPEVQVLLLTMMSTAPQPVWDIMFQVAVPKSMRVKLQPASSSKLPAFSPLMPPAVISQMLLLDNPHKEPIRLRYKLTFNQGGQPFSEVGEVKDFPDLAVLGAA
UniProt Q9C0B1, whole entry, looked up: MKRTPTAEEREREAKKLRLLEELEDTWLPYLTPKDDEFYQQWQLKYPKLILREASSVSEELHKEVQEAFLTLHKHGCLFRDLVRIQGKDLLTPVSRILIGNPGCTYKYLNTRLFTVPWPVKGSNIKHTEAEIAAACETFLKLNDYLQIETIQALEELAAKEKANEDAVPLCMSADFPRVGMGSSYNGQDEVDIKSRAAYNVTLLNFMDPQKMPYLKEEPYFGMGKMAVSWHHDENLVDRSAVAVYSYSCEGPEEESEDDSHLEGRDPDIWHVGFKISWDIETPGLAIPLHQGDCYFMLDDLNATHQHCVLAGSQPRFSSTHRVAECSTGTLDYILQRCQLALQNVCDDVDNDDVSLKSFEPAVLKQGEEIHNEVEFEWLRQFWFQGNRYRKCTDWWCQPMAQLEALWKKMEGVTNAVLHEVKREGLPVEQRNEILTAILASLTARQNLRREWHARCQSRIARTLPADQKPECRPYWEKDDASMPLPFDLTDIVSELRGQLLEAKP

Columns and labels:
Experiment in all cases: log2 fold change, soluble protein after heating vs DMSO (PISA); higher = thermal stabilisation; K562 lysate, 10 uM; active = over 0.2 and 3.5 SD of the protein, either way, in both replicates (recomputed)
alvocidib = compound: CN1CC[C@H](c2c(O)cc(O)c3c(=O)cc(-c4ccccc4Cl)oc23)[C@H](O)C1 [alvocidib]
Summary of the method: (§1)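 K562 pellets were dounce-homogenised in PBS pH 7.4 with 1 mM MgCl2, and the crude extract at 1 mg/mL protein was treated with 10 μM compound for 30 min. Aliquots were heated for 3 min across 48°C-58°C, pooled, and brought to 0.5% NP-40 at 4°C; soluble protein was the supernatant after 21,000xg for 90 min. Soluble protein was quantified by TMTpro 16plex LC-MS/MS with channel sums equalised, and reported as log2 fold change in thermal stability against DMSO controls, with values from duplicates.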

Tubastatin A = compound: CN1CCc2c(c3ccccc3n2Cc2ccc(C(=O)NO)cc2)C1 [Tubastatin A]
Summary of the method: as §1

[1] = compound: CNC(=O)C1=CC=CC=C1NC2=NC(=NC=C2Cl)NC3=C(C=C(C=C3)N4CCOCC4)OC
Summary of the method: as §1

defactinib = compound: CNC(=O)c1ccc(Nc2ncc(C(F)(F)F)c(NCc3nccnc3N(C)S(C)(=O)=O)n2)cc1 [defactinib]
Summary of the method: as §1

[2] = compound: CNc1nc(-c2ccc3c(N)n[nH]c3c2)cc(N2C[C@@H](C(=O)NC3CCCCC3)CC[C@H]2C)n1
Summary of the method: as §1

encorafenib = compound: COC(=O)N[C@@H](C)CNc1nccc(-c2cn(C(C)C)nc2-c2cc(Cl)cc(NS(C)(=O)=O)c2F)n1 [encorafenib]
Summary of the method: as §1

[3] = compound: COC(=O)[C@H](CCSC)NC(=O)C1=C(C=C(C=C1)NC[C@H](CS)N)C2=CC=CC=C2
Summary of the method: as §1

alisertib = compound: COc1cc(Nc2ncc3c(n2)-c2ccc(Cl)cc2C(c2c(F)cccc2OC)=NC3)ccc1C(=O)O [alisertib]
Summary of the method: as §1

[4] = compound: COc1cc2nc(-c3cc(F)ccc3O)nc(N[C@@H]3CNC[C@H]3C(C)(C)O)c2cc1OC
Summary of the method: as §1

gefitinib = compound: COc1cc2ncnc(Nc3ccc(F)c(Cl)c3)c2cc1OCCCN1CCOCC1 [gefitinib]
Summary of the method: as §1

lapatinib = compound: CS(=O)(=O)CCNCc1ccc(-c2ccc3ncnc(Nc4ccc(OCc5cccc(F)c5)c(Cl)c4)c3c2)o1 [lapatinib]
Summary of the method: as §1

pictilisib = compound: CS(=O)(=O)N1CCN(Cc2cc3nc(-c4cccc5[nH]ncc45)nc(N4CCOCC4)c3s2)CC1 [pictilisib]
Summary of the method: as §1

crizotinib = compound: C[C@@H](Oc1cc(-c2cnn(C3CCNCC3)c2)cnc1N)c1c(Cl)ccc(F)c1Cl [crizotinib]
Summary of the method: as §1

[5] = compound: C[C@H](C1=CC=C(C=C1)C(=O)NC2=C3C=CNC3=NC=C2)N
Summary of the method: as §1

duvelisib = compound: C[C@H](Nc1ncnc2nc[nH]c12)c1cc2cccc(Cl)c2c(=O)n1-c1ccccc1 [duvelisib]
Summary of the method: as §1

gandotinib = compound: Cc1cc(Nc2cc(CN3CCOCC3)c3nc(C)c(Cc4ccc(Cl)cc4F)n3n2)n[nH]1 [gandotinib]
Summary of the method: as §1

tozasertib = compound: Cc1cc(Nc2cc(N3CCN(C)CC3)nc(Sc3ccc(NC(=O)C4CC4)cc3)n2)n[nH]1 [tozasertib]
Summary of the method: as §1

doramapimod = compound: Cc1ccc(-n2nc(C(C)(C)C)cc2NC(=O)Nc2ccc(OCCN3CCOCC3)c3ccccc23)cc1 [doramapimod]
Summary of the method: as §1

bafetinib = compound: Cc1ccc(NC(=O)c2ccc(CN3CC[C@H](N(C)C)C3)c(C(F)(F)F)c2)cc1Nc1nccc(-c2cncnc2)n1 [bafetinib]
Summary of the method: as §1

[6] = compound: Cc1cccc(CC(=O)N2CCc3c2ccc(-c2cn(C)c4ncnc(N)c24)c3F)n1
Summary of the method: as §1

Measured: log2 fold change

GET4 (UniProt Q7L5D6)
inactive: alvocidib 0.015 | Tubastatin A -0.057 | [1] -0.016 | defactinib 0.019 | [2] -0.012 | encorafenib -0.016 | [3] 0.17 | alisertib 0.015 | [4] -0.003 | gefitinib -0.039 | lapatinib -0.013 | pictilisib -0.054 | crizotinib -0.034 | [5] -0.022 | duvelisib 0.064 | gandotinib -0.128 | tozasertib 0.006 | doramapimod -0.038 | bafetinib -0.062 | [6] 0.019

GAMT (UniProt Q14353)
inactive: alvocidib 0.025 | Tubastatin A -0.059 | [1] 0.055 | defactinib 0.068 | [2] 0.038 | encorafenib -0.028 | [3] 0.039 | alisertib 0.018 | [4] -0.021 | gefitinib -0.035 | lapatinib 0.02 | pictilisib -0.028 | crizotinib 0 | [5] 0.02 | duvelisib 0.082 | gandotinib 0.002 | tozasertib -0.02 | doramapimod 0.09 | bafetinib 0.062 | [6] -0.046

GAPVD1 isoform 6 (UniProt Q14C86)
inactive: alvocidib 0.01 | Tubastatin A -0.112 | [1] 0.015 | defactinib 0.018 | [2] -0.04 | encorafenib 0.014 | [3] 0.097 | alisertib 0.005 | [4] -0.017 | gefitinib -0.012 | lapatinib 0 | pictilisib -0.017 | crizotinib -0.023 | [5] 0.054 | duvelisib 0.011 | gandotinib -0.088 | tozasertib -0.002 | doramapimod 0.025 | bafetinib -0.022 | [6] -0.018

GCAT isoform 2 (UniProt O75600)
inactive: alvocidib 0.034 | Tubastatin A -0.007 | [1] 0.004 | defactinib -0.025 | [2] 0.031 | encorafenib 0.026 | [3] -0.031 | alisertib 0.015 | [4] -0.019 | gefitinib 0.015 | lapatinib 0.028 | pictilisib -0.095 | crizotinib 0.018 | [5] 0.014 | duvelisib 0.034 | gandotinib -0.038 | tozasertib -0.028 | doramapimod 0.027 | bafetinib 0 | [6] -0.038

FUS (UniProt P35637)
inactive: alvocidib 0.046 | Tubastatin A 0.095 | [1] 0.028 | defactinib -0.01 | [2] 0.06 | encorafenib -0.008 | [3] -0.029 | alisertib 0.019 | [4] 0.014 | gefitinib 0.034 | lapatinib 0.024 | pictilisib -0.004 | crizotinib 0.021 | [5] 0.117 | duvelisib -0.027 | gandotinib -0.023 | tozasertib -0.014 | doramapimod -0.05 | bafetinib 0.06 | [6] -0.082

GADD45GIP1 (UniProt Q8TAE8)
inactive: alvocidib -0.008 | Tubastatin A 0.037 | [1] -0.101 | defactinib 0.006 | [2] 0.066 | encorafenib 0.005 | [3] 0.04 | alisertib 0.024 | [4] -0.033 | gefitinib -0.003 | lapatinib 0.003 | pictilisib 0.007 | crizotinib -0.008 | [5] -0.063 | duvelisib 0.03 | gandotinib 0.03 | tozasertib 0.002 | doramapimod 0.041 | bafetinib 0.043 | [6] 0.009

Looked up one by one from the list above (2):
GAMT (UniProt Q14353)
inactive: alvocidib 0.025 | Tubastatin A -0.059 | [1] 0.055 | defactinib 0.068 | [2] 0.038 | encorafenib -0.028 | [3] 0.039 | alisertib 0.018 | [4] -0.021 | gefitinib -0.035 | lapatinib 0.02 | pictilisib -0.028 | crizotinib 0 | [5] 0.02 | duvelisib 0.082 | gandotinib 0.002 | tozasertib -0.02 | doramapimod 0.09 | bafetinib 0.062 | [6] -0.046

GADD45GIP1 (UniProt Q8TAE8)
inactive: alvocidib -0.008 | Tubastatin A 0.037 | [1] -0.101 | defactinib 0.006 | [2] 0.066 | encorafenib 0.005 | [3] 0.04 | alisertib 0.024 | [4] -0.033 | gefitinib -0.003 | lapatinib 0.003 | pictilisib 0.007 | crizotinib -0.008 | [5] -0.063 | duvelisib 0.03 | gandotinib 0.03 | tozasertib 0.002 | doramapimod 0.041 | bafetinib 0.043 | [6] 0.009

Later entries

GCSH (UniProt P23434)
inactive: alvocidib -0.054 | Tubastatin A 0.127 | [1] -0.001 | defactinib 0.043 | [2] -0.005 | encorafenib 0.01 | [3] -0.042 | alisertib -0.037 | [4] -0.017 | gefitinib 0.008 | lapatinib 0.084 | pictilisib 0.079 | crizotinib 0.021 | [5] -0.099 | duvelisib 0.01 | gandotinib 0.041 | tozasertib -0.079 | doramapimod -0.046 | bafetinib 0.072 | [6] 0.062

GFPT1 (UniProt Q06210)
inactive: alvocidib 0.022 | Tubastatin A -0.075 | [1] 0.011 | defactinib 0.01 | [2] 0.012 | encorafenib -0.012 | [3] 0.134 | alisertib 0.005 | [4] 0.007 | gefitinib -0.013 | lapatinib -0.001 | pictilisib -0.026 | crizotinib -0.033 | [5] 0.009 | duvelisib -0.002 | gandotinib -0.066 | tozasertib -0.013 | doramapimod -0.001 | bafetinib -0.031 | [6] 0.007

GABARAP (UniProt O95166)
inactive: alvocidib 0.067 | Tubastatin A -0.01 | [1] -0.072 | defactinib 0.108 | [2] -0.071 | encorafenib -0.023 | [3] 0.028 | alisertib 0.033 | [4] -0.018 | gefitinib -0.038 | lapatinib -0.025 | pictilisib -0.098 | crizotinib 0.083 | [5] -0.042 | duvelisib -0.142 | gandotinib 0.017 | tozasertib -0.052 | doramapimod -0.012 | bafetinib 0.036 | [6] -0.159

GDAP2 (UniProt Q9NXN4)
inactive: alvocidib 0.032 | Tubastatin A -0.153 | [1] 0.05 | defactinib -0.028 | [2] -0.022 | encorafenib -0.008 | [3] 0.07 | alisertib 0.003 | [4] -0.082 | gefitinib 0.009 | lapatinib 0.086 | pictilisib -0.089 | crizotinib -0.012 | [5] -0.005 | duvelisib 0.027 | gandotinib -0.076 | tozasertib 0.005 | doramapimod -0.063 | bafetinib -0.028 | [6] 0.005

GAGE5 (UniProt Q13069)
inactive: alvocidib 0.036 | Tubastatin A 0.13 | [1] -0.009 | defactinib 0.115 | [2] 0.05 | encorafenib 0.04 | [3] -0.133 | alisertib 0.042 | [4] -0.021 | gefitinib -0.058 | lapatinib 0.097 | pictilisib -0.039 | crizotinib 0.023 | [5] 0.016 | duvelisib 0.066 | gandotinib -0.068 | tozasertib -0.056 | doramapimod 0.002 | bafetinib -0.016 | [6] -0.022

FTL (UniProt P02792)
inactive: alvocidib 0.013 | Tubastatin A 0.187 | [1] -0.04 | defactinib 0.15 | [2] -0.097 | encorafenib 0.145 | [3] -0.076 | alisertib 0.067 | [4] 0.007 | gefitinib -0.024 | lapatinib -0.072 | pictilisib -0.027 | crizotinib -0.066 | [5] -0.022 | duvelisib -0.001 | gandotinib 0.068 | tozasertib 0.008 | doramapimod -0.024 | bafetinib -0.052 | [6] -0.018

FYB1 isoform 3 (UniProt O15117)
inactive: alvocidib -0.012 | Tubastatin A -0.001 | [1] 0.013 | defactinib 0.033 | [2] 0.065 | encorafenib -0.005 | [3] -0.035 | alisertib -0.012 | [4] -0.014 | gefitinib -0.029 | lapatinib 0.045 | pictilisib -0.008 | crizotinib -0.082 | [5] 0.147 | duvelisib 0.01 | gandotinib -0.051 | tozasertib 0.052 | doramapimod -0.007 | bafetinib -0.062 | [6] -0.058

GAPDH (UniProt P04406)
inactive: alvocidib 0.01 | Tubastatin A 0.046 | [1] 0 | defactinib 0.012 | [2] 0.018 | encorafenib -0.045 | [3] -0.006 | alisertib -0.039 | [4] -0.001 | gefitinib -0.026 | lapatinib 0.005 | pictilisib -0.024 | crizotinib 0.066 | [5] 0.043 | duvelisib 0.003 | gandotinib -0.002 | tozasertib -0.005 | doramapimod -0.031 | bafetinib 0.055 | [6] -0.082

GGA2 (UniProt Q9UJY4)
inactive: alvocidib 0.002 | Tubastatin A -0.085 | [1] 0.003 | defactinib -0.029 | [2] -0.018 | encorafenib 0.002 | [3] 0.01 | alisertib 0.038 | [4] 0.023 | gefitinib -0.025 | lapatinib -0.024 | pictilisib -0.037 | crizotinib -0.029 | [5] 0.023 | duvelisib -0.002 | gandotinib -0.131 | tozasertib 0.007 | doramapimod -0.024 | bafetinib -0.046 | [6] -0.004

FTO (UniProt Q9C0B1)
inactive: alvocidib -0.003 | Tubastatin A -0.03 | [1] -0.001 | defactinib -0.027 | [2] 0.026 | encorafenib -0.023 | [3] -0.006 | alisertib 0.002 | [4] -0.008 | gefitinib -0.002 | lapatinib -0.016 | pictilisib -0.047 | crizotinib -0.006 | [5] -0.039 | duvelisib -0.012 | gandotinib 0.036 | tozasertib 0.011 | doramapimod -0.012 | bafetinib -0.011 | [6] 0.02
